Measured values: the supplement of paper PMC10849652
The other results are listed elsewhere or left out.

Amino acid sequences for entries named in this document (tags omitted). A change or cut given only in a name is not applied to a line headed by its entry.
UniProt Q9UPS8: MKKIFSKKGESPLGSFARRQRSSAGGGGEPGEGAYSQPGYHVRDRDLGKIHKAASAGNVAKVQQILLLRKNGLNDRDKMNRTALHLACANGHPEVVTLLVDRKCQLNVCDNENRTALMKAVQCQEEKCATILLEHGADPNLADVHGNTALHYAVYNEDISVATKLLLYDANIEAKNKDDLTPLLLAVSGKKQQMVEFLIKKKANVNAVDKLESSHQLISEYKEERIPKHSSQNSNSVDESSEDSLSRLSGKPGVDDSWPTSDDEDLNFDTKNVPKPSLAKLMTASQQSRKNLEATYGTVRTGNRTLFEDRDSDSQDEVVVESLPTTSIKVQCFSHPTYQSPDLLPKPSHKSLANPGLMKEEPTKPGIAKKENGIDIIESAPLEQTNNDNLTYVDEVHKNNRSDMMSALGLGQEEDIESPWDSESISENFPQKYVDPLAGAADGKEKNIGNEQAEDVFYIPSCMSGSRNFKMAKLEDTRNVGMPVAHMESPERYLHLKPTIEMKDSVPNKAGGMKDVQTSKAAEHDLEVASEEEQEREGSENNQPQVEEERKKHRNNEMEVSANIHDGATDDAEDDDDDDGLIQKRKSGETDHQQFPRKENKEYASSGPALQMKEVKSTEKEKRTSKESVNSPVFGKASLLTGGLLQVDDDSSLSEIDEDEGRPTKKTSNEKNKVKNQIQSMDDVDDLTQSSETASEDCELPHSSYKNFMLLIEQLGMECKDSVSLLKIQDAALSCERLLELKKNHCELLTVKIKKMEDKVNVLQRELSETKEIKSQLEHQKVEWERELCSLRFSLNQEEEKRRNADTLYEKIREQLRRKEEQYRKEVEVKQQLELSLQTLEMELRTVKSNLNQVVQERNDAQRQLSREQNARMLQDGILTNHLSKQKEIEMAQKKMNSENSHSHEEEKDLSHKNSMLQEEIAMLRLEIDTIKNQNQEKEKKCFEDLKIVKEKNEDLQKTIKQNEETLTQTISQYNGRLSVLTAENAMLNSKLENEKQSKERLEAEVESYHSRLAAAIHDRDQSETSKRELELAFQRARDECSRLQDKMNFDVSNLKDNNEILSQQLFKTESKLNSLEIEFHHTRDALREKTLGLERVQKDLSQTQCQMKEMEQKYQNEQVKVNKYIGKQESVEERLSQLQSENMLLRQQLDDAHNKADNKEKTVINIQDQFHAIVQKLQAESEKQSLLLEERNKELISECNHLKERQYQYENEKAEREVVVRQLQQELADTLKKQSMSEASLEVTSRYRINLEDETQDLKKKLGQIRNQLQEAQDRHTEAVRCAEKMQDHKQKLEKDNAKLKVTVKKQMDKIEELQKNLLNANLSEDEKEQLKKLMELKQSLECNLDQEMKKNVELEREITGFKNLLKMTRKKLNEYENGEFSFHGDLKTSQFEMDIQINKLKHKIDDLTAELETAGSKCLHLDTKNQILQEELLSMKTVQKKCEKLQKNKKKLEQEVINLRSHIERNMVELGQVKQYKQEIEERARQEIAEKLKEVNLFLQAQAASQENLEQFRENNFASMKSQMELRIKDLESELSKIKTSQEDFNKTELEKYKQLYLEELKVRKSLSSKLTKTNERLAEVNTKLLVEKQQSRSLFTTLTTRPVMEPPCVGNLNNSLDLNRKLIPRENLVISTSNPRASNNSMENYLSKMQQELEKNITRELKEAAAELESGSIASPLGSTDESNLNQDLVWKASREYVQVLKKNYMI
UniProt Q86XL3: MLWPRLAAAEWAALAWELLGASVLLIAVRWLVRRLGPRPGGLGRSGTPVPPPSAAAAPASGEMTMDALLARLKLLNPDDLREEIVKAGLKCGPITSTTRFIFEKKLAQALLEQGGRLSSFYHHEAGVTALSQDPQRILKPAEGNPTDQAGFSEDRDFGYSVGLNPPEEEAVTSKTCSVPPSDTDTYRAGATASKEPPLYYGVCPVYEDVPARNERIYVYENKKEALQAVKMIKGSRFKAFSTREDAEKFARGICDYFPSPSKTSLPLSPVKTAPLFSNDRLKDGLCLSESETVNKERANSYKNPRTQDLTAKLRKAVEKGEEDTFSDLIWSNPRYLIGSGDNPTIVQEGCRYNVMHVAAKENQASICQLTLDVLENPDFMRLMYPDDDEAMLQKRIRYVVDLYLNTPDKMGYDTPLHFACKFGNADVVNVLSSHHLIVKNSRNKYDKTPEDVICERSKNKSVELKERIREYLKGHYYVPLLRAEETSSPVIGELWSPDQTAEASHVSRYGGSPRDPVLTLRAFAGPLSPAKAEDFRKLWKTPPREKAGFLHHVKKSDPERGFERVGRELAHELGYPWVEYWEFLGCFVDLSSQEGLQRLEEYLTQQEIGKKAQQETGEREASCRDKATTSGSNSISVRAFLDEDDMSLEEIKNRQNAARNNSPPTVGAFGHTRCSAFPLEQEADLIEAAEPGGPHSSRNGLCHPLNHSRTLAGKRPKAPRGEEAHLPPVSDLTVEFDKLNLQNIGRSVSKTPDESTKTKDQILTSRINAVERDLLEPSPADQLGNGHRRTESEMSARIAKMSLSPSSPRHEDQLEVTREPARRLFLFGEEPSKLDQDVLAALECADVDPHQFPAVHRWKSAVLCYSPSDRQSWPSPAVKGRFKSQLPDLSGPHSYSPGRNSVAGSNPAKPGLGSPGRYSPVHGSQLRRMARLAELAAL
UniProt Q63HQ0: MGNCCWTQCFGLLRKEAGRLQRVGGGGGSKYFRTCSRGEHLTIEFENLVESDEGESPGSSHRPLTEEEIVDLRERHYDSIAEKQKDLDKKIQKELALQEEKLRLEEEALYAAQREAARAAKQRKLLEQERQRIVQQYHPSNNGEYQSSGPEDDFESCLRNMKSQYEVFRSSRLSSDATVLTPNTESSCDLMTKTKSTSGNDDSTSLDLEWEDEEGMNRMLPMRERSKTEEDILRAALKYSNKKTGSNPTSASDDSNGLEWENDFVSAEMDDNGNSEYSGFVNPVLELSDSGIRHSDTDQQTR
UniProt Q86W34: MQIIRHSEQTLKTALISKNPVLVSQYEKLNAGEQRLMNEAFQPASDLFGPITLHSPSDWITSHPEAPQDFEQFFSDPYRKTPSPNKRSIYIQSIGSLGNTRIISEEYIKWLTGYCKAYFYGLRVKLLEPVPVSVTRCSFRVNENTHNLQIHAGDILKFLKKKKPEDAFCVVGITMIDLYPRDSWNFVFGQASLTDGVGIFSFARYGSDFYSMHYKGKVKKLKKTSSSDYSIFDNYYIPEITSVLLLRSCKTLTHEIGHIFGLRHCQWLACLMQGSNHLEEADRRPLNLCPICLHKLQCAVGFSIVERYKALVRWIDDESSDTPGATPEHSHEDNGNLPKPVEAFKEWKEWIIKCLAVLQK
UniProt P56377: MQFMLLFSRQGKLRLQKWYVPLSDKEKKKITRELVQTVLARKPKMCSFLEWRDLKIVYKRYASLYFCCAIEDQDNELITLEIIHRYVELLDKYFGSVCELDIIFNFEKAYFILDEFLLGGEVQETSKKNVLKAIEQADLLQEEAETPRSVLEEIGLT
UniProt Q96PC3: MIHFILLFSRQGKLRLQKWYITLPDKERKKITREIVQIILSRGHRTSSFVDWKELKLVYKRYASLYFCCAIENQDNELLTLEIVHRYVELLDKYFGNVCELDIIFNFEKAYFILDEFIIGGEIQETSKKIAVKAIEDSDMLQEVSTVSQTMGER
UniProt P59780: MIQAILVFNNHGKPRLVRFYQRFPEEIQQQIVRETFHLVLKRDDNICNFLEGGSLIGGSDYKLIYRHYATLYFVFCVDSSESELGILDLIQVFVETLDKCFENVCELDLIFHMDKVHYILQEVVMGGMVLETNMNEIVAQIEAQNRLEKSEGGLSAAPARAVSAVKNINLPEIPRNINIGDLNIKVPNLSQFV
UniProt Q8N8A2: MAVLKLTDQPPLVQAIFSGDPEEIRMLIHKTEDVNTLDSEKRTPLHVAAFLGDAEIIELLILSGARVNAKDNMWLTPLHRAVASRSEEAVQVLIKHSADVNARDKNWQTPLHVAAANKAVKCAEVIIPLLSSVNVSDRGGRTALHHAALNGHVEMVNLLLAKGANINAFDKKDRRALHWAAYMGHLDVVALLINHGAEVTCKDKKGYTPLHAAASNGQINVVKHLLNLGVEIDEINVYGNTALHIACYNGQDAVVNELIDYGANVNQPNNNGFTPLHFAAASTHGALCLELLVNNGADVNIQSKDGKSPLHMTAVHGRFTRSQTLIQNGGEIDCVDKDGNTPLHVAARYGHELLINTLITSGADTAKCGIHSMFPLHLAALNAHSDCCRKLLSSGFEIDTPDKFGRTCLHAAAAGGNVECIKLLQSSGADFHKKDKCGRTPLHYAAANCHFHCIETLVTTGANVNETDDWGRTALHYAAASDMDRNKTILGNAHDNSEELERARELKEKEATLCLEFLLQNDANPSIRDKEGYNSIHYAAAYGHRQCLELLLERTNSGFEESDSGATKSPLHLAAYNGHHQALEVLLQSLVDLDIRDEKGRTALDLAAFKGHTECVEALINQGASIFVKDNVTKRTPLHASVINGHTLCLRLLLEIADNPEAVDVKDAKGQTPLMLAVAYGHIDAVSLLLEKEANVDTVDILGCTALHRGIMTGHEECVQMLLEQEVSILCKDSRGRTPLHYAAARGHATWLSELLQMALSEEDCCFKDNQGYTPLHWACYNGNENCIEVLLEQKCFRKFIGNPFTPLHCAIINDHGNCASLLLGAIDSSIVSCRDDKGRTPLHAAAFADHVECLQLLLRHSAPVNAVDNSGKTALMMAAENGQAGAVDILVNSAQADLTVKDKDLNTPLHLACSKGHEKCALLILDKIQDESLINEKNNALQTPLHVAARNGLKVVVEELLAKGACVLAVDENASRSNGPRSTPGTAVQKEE
UniProt O14617: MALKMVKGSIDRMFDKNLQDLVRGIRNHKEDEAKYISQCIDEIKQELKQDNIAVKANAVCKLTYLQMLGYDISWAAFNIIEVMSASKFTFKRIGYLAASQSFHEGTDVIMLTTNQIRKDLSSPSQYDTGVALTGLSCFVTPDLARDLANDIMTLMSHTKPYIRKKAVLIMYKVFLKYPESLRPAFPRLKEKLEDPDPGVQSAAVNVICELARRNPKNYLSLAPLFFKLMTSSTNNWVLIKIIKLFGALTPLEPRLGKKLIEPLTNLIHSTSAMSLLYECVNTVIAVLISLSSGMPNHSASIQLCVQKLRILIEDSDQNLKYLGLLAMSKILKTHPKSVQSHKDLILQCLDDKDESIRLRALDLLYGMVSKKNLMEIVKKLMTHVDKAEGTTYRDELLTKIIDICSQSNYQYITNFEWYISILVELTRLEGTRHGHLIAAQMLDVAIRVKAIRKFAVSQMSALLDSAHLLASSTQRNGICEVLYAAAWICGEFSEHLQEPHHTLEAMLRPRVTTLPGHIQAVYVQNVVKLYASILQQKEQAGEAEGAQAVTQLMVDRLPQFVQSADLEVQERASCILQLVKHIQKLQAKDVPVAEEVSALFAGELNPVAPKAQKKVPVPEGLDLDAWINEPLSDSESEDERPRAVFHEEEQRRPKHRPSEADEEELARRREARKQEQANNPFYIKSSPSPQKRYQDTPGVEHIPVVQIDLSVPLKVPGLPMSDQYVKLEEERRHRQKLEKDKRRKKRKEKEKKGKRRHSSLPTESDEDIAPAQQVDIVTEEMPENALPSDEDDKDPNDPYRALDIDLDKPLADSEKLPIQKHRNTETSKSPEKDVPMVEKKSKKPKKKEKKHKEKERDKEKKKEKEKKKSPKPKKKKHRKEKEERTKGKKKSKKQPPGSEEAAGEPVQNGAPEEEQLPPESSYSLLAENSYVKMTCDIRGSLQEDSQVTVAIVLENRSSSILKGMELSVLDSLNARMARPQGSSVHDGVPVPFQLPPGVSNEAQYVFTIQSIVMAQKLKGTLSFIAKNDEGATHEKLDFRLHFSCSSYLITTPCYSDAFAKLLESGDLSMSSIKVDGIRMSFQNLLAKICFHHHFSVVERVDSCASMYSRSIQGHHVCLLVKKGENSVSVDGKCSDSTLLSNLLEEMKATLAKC
UniProt P30838: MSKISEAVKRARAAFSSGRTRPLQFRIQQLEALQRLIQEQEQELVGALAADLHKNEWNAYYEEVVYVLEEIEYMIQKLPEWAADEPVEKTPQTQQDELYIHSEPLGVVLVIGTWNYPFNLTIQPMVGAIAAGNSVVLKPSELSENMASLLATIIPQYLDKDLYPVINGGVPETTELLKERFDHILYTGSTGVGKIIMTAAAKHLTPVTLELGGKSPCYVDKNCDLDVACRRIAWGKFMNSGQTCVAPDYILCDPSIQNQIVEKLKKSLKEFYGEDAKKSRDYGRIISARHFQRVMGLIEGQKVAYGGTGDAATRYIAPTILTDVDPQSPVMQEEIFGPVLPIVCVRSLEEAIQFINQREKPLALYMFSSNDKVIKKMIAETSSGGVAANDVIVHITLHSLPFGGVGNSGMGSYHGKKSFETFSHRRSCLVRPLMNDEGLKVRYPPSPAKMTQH

These targets were tested with Cn1cncc1[C@@](N)(c1ccc(Cl)cc1)c1ccc2c(c1)c(-c1cccc(Cl)c1)cc(=O)n2C [tipifarnib] (assay: log2 fold change, soluble protein after heating vs DMSO (PISA); higher = thermal stabilisation; K562 lysate, 10 uM; active = over 0.2 and 3.5 SD of the protein, either way, in both replicates (recomputed)).
Summary of the method: (§1)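 Quantification was by TMTpro 16plex LC-MS/MS with equalised channel sums, applied to the supernatant after 21,000xg for 90 min. Samples were crude K562 extract at 1 mg/mL protein in PBS pH 7.4 with 1 mM MgCl2, treated with 10 μM compound for 30 min, heated for 3 min across 48°C-58°C, pooled and brought to 0.5% NP-40 at 4°C. Values are log-two fold changes in thermal stability relative to solvent controls, from duplicates.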

Row | Target | log2 fold change
1 | AP4M1 (UniProt O00189) | inactive: 0.084
2 | ANKRD26 (UniProt Q9UPS8) | inactive: -0.054
3 | ANKRD30B (UniProt Q9BXX2) | inactive: -0.065
4 | ANXA6 (UniProt E5RK69) | inactive: -0.063
5 | AMBRA1 isoform 5 (UniProt Q9C0C7) | inactive: -0.055
6 | ANKLE2 (UniProt Q86XL3) | inactive: 0.046
7 | AP1AR (UniProt Q63HQ0) | inactive: -0.047
8 | AMZ2 (UniProt Q86W34) | inactive: 0.071
9 | ALDOA (UniProt H3BPS8) | inactive: 0.146
10 | ANKRD40 (UniProt Q6AI12) | inactive: 0.137
11 | ALAS1 (UniProt P13196) | inactive: -0.073
12 | ANKH (UniProt Q9HCJ1) | inactive: 0.04
13 | AP1S2 (UniProt P56377) | inactive: -0.148
14 | AP1S3 isoform 4 (UniProt Q96PC3) | inactive: -0.028
15 | AP3S2 (UniProt P59780) | inactive: -0.029
16 | AKT1S1 (UniProt M0R2V8) | inactive: 0.169
17 | ANKRD44 isoform 2 (UniProt Q8N8A2) | inactive: 0
18 | ANKRD50 (UniProt Q9ULJ7) | inactive: 0.166
19 | ANAPC16 (UniProt Q96DE5) | inactive: 0.068
20 | AP3D1 isoform 2 (UniProt O14617) | inactive: -0.132

What follows are targets tested with NC(=O)Nc1cc(-c2cccc(F)c2)sc1C(=O)N[C@H]1CCCNC1 in the same assay as above.
Summary of the method: as §1

Row | Target | log2 fold change
21 | AP4M1 (UniProt O00189) | inactive: 0.012
22 | ANKRD26 (UniProt Q9UPS8) | inactive: 0.347
23 | ANXA6 (UniProt E5RK69) | inactive: 0.086
24 | AMBRA1 isoform 5 (UniProt Q9C0C7) | inactive: 0.03
25 | ANKLE2 (UniProt Q86XL3) | inactive: 0.04
26 | ALDH3A1 (UniProt P30838) | inactive: -0.065
27 | AP1AR (UniProt Q63HQ0) | inactive: -0.027
28 | AMZ2 (UniProt Q86W34) | inactive: 0.013
29 | ANKRD40 (UniProt Q6AI12) | inactive: -0.001
30 | ANKH (UniProt Q9HCJ1) | inactive: 0.002
31 | AP1S2 (UniProt P56377) | inactive: 0.086
32 | ANKRD31 (UniProt Q8N7Z5) | inactive: 0.068
33 | ANKRD50 (UniProt Q9ULJ7) | inactive: 0.066
34 | ANAPC16 (UniProt Q96DE5) | inactive: 0.003

What follows are targets tested with NC(=O)c1cnc(N[C@@H]2CCCC[C@@H]2N)nc1Nc1cccc(-n2nccn2)c1 in the same assay as above.
Summary of the method: as §1

Row | Target | log2 fold change
35 | ANKRD13B (UniProt Q86YJ7) | inactive: -0.025
36 | ANKRD26 (UniProt Q9UPS8) | inactive: 0.124
37 | ANKRD30B (UniProt Q9BXX2) | inactive: 0.059
38 | ANXA6 (UniProt E5RK69) | inactive: 0.059
39 | AMBRA1 isoform 5 (UniProt Q9C0C7) | inactive: 0.029
40 | ALDH3A1 (UniProt P30838) | inactive: 0.055
41 | AP1AR (UniProt Q63HQ0) | inactive: 0.013
42 | AMZ2 (UniProt Q86W34) | inactive: 0.023
43 | ALG12 (UniProt Q9BV10) | inactive: -0.058
44 | AKTIP isoform 2 (UniProt Q9H8T0) | inactive: -0.139
45 | ALDOA (UniProt H3BPS8) | inactive: -0.15
46 | ALG14 (UniProt Q96F25) | inactive: -0.073
47 | AP1G1 (UniProt H3BV30) | inactive: 0.016
48 | ALAS1 (UniProt P13196) | inactive: 0.199
49 | ANKH (UniProt Q9HCJ1) | inactive: 0.046
50 | AP1S2 (UniProt P56377) | inactive: 0.056

Row | Target | log2 fold change
51 | AP1S3 isoform 4 (UniProt Q96PC3) | inactive: 0.103
52 | AP3M2 (UniProt P53677) | inactive: 0.032
53 | AP3S2 (UniProt P59780) | inactive: 0.021
54 | ANKRD31 (UniProt Q8N7Z5) | inactive: 0.063
55 | AKT1S1 (UniProt M0R2V8) | inactive: 0.041
56 | ANKRD44 isoform 2 (UniProt Q8N8A2) | inactive: -0.019
57 | ANKRD50 (UniProt Q9ULJ7) | inactive: -0.013
58 | AP2S1 (UniProt M0QZ21) | inactive: 0.178
59 | AP2M1 (UniProt C9JPV8) | inactive: 0.391
60 | ANKHD1 (UniProt D6RHC4) | inactive: 0
61 | AMN1 (UniProt Q8IY45) | inactive: -0.188
62 | ANGPTL4 (UniProt M0R3A2) | inactive: 0.227
63 | ANKS1B (UniProt Q7Z6G8) | inactive: -0.041
64 | ANAPC16 (UniProt Q96DE5) | inactive: -0.009
65 | AP3D1 isoform 2 (UniProt O14617) | inactive: 0.034

These targets were tested with NC1(c2ccc(-c3nc4ccn5c(=O)[nH]nc5c4cc3-c3ccccc3)cc2)CCC1 in the same assay as above.
Summary of the method: as §1

Row | Target | log2 fold change
66 | AP4M1 (UniProt O00189) | inactive: 0.023
67 | ANKRD26 (UniProt Q9UPS8) | inactive: -0.039
68 | ANKRD30B (UniProt Q9BXX2) | inactive: -0.051
69 | ANXA6 (UniProt E5RK69) | inactive: -0.04
70 | AMBRA1 isoform 5 (UniProt Q9C0C7) | inactive: 0.066
71 | ANKLE2 (UniProt Q86XL3) | inactive: 0.004
72 | ALDH3A1 (UniProt P30838) | inactive: -0.018
73 | AP1AR (UniProt Q63HQ0) | inactive: -0.004
74 | AMZ2 (UniProt Q86W34) | inactive: 0.008
75 | ALG12 (UniProt Q9BV10) | inactive: 0.11
76 | AKTIP isoform 2 (UniProt Q9H8T0) | inactive: 0.404
77 | ALDOA (UniProt H3BPS8) | inactive: 0.028
78 | ANKRD40 (UniProt Q6AI12) | inactive: -0.119
79 | ANKH (UniProt Q9HCJ1) | inactive: 0.038
80 | AP1S2 (UniProt P56377) | inactive: 0.114
81 | AP1S3 isoform 4 (UniProt Q96PC3) | inactive: 0.129
82 | AP3M2 (UniProt P53677) | inactive: 0.038
83 | AP3S2 (UniProt P59780) | inactive: -0.039
84 | ANKRD44 isoform 2 (UniProt Q8N8A2) | inactive: 0.025
85 | ANKRD50 (UniProt Q9ULJ7) | inactive: -0.113
86 | ANKHD1 (UniProt D6RHC4) | inactive: -0.226
87 | ANGPTL4 (UniProt M0R3A2) | inactive: 0.167
88 | ANAPC16 (UniProt Q96DE5) | inactive: 0.059
89 | AP3D1 isoform 2 (UniProt O14617) | inactive: -0.121
